Two molecules from article PMC10383035 can be followed below.

No constants are given. Whether binding was seen depends on the method and setting. In cells and extracts the contact can be indirect. For part of these data: Binding calls can cover weak binding; strength is not graded here. Sequences can lack the tags named with a protein.

Holding throughout (assay): co-IP; HEK293T cells co-transfected with HA-tagged Card9 and FLAG-tagged Dok3 or truncation variants; lysates IP overnight at 4 °C with anti-FLAG or anti-HA antibodies and Protein A/G Plus Agarose beads; blotted with anti-HA and anti-FLAG
The target of assay [1] is T1, HA-tagged Card9 truncation variant encoding the CARD domain (UniProt Q9H257).
T1 sequence: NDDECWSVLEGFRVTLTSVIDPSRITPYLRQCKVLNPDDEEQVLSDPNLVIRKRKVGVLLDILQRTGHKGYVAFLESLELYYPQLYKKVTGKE

For assay [2], the target named is T2, HA-tagged full-length Card9 (UniProt Q9H257).
T2 sequence: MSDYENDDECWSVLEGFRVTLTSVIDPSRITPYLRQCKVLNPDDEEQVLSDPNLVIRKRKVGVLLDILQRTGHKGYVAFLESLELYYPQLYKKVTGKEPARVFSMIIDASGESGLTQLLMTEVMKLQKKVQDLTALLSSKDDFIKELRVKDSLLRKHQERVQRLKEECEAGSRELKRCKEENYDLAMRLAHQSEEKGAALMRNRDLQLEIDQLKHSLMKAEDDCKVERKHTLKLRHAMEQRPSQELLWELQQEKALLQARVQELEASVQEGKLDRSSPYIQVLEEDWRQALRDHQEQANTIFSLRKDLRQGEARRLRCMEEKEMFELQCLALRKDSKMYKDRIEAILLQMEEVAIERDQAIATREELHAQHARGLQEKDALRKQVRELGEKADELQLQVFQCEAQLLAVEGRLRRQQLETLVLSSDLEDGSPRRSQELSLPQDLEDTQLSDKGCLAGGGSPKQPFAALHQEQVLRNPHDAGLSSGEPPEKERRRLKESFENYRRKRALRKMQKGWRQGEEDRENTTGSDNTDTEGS

Assay [3] concerns the target FLAG-tagged Dok3 truncation variant bearing the PH domain.
Assay [4] concerns the target FLAG-tagged Dok3 truncation variant bearing the PTB domain.
For assay [5], the target named is FLAG-tagged Dok3 truncation variant bearing the SH2 domain.
For assay [6], the target named is FLAG-tagged full-length Dok3.

On to FLAG-tagged full-length Dok3, for which the values for the binding result in assay [1] and in assay [2] were “no binding” and “binds”, respectively.

B1: HA-tagged full-length Card9 (protein, UniProt Q9H257 1-536)
chain: T2 sequence
As for B1, the binding result in assay [3] is on record as “binds”; in assay [4], “binds”; in assay [5], “no binding”; in assay [6], “binds”.
